No constants are given. Whether binding was seen depends on the method and setting. Binding seen in cells or lysates may run through a third protein. A yes stands for co-enrichment or nearness to the bait. Other partners may have been found. Tags and fused reporters may be left off the sequences shown.

By UniProt entry, the sequences of proteins in these tests, tags left out. Where a name states a change or a piece, a line headed by the entry shows the natural chain unless it says otherwise. Residues count along the entry.
UniProt P14735: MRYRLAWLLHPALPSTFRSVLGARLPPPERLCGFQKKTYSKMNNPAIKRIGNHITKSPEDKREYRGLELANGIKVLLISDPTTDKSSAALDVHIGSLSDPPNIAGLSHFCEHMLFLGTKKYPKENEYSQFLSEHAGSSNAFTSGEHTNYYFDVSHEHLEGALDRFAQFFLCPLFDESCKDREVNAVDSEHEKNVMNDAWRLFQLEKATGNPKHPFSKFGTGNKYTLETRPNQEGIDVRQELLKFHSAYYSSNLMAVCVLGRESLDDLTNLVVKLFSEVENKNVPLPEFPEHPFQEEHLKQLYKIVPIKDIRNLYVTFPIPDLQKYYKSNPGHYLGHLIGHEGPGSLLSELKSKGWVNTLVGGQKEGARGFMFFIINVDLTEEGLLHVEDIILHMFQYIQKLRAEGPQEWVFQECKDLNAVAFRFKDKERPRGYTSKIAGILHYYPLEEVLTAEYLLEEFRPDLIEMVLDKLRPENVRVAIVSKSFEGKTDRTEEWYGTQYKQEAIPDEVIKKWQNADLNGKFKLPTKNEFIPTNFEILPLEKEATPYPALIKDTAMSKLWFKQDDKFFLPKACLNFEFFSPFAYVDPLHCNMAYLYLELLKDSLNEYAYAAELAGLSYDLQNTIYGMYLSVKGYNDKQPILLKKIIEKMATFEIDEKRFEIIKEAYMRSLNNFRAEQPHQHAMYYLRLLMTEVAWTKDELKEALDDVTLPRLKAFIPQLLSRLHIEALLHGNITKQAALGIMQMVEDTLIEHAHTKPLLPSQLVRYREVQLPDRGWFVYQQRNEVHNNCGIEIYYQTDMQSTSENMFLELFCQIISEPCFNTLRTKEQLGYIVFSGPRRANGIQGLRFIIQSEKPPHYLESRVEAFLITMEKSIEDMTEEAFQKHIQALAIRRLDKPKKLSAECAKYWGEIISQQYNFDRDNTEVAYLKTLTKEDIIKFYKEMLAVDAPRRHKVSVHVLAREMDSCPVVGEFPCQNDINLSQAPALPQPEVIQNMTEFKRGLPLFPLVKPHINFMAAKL
UniProt Q96CW5: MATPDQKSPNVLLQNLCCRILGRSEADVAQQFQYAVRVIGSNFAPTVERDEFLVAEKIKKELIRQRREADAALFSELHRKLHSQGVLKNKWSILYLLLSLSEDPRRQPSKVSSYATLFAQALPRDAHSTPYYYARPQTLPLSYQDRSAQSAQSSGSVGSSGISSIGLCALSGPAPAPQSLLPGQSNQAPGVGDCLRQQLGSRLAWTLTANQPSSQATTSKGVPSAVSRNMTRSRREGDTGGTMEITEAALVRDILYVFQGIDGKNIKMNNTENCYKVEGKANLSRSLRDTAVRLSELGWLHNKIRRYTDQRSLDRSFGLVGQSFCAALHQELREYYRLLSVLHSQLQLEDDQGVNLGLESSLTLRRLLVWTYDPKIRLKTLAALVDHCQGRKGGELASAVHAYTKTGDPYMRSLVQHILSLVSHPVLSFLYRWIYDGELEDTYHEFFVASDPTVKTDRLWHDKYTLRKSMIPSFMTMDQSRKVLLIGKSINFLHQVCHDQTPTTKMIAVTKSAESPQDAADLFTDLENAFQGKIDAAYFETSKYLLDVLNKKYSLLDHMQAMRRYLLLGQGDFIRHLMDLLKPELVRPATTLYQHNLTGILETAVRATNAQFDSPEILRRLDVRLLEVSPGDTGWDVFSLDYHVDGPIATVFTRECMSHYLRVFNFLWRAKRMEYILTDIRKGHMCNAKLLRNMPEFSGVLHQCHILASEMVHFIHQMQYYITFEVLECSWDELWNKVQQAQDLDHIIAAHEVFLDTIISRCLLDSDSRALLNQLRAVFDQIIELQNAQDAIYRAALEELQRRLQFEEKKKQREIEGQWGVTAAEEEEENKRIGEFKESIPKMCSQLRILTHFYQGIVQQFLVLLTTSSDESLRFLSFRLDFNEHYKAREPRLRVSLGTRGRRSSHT
UniProt P25705, residues 44-553: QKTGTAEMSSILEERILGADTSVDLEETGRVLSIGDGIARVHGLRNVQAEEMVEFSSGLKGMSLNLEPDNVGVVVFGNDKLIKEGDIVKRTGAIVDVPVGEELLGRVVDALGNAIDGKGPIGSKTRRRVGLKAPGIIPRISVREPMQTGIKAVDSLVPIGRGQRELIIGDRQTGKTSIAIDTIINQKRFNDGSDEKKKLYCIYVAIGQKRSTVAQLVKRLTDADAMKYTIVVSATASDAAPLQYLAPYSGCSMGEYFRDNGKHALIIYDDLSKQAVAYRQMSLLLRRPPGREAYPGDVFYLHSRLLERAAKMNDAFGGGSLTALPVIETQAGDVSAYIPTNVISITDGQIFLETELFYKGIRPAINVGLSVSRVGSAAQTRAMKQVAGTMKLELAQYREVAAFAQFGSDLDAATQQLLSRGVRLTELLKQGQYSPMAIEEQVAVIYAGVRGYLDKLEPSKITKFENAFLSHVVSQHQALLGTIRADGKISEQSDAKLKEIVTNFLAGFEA
UniProt Q9UBN7: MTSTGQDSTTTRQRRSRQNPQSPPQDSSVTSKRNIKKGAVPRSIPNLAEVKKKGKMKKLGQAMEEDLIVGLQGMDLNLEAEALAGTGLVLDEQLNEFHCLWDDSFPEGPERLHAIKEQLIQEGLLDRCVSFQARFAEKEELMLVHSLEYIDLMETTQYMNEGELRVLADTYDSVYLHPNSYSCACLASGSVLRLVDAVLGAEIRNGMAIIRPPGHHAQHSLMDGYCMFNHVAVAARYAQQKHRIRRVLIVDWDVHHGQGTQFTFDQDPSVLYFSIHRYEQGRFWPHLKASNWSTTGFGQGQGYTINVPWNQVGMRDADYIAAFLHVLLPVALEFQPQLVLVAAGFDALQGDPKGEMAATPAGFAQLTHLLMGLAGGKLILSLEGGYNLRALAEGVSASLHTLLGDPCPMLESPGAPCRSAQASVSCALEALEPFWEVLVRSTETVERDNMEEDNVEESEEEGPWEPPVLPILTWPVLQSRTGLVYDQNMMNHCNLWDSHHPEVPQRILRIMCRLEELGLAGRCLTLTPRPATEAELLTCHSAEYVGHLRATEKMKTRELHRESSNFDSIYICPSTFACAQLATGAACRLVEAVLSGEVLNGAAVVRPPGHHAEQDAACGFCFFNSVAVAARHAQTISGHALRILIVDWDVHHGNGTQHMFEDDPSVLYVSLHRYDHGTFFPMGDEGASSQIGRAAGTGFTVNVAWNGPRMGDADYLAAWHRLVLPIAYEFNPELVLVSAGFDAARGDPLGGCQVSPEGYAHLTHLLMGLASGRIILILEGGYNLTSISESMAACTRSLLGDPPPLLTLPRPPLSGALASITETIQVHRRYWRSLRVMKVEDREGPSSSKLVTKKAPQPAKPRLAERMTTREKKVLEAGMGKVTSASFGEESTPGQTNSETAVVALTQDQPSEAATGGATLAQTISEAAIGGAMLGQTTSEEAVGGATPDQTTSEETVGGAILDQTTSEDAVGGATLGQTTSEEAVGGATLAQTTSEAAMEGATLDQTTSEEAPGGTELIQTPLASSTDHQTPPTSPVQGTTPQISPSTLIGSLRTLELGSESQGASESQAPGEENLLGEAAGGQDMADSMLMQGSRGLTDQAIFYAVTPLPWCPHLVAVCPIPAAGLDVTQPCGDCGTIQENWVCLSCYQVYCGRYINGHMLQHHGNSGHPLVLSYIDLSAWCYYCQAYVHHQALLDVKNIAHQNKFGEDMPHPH
UniProt P23258: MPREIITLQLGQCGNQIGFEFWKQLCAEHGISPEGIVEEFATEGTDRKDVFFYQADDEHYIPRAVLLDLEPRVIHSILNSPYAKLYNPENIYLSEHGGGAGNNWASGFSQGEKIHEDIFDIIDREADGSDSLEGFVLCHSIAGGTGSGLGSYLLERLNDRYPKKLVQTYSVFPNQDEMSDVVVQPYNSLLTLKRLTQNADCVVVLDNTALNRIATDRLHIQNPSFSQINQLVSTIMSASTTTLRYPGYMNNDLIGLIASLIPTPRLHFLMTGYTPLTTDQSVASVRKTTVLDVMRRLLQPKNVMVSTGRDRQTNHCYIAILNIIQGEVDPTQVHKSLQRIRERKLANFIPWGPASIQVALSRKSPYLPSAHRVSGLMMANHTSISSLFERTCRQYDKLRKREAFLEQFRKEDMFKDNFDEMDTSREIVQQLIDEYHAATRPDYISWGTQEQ
UniProt Q9BSJ2: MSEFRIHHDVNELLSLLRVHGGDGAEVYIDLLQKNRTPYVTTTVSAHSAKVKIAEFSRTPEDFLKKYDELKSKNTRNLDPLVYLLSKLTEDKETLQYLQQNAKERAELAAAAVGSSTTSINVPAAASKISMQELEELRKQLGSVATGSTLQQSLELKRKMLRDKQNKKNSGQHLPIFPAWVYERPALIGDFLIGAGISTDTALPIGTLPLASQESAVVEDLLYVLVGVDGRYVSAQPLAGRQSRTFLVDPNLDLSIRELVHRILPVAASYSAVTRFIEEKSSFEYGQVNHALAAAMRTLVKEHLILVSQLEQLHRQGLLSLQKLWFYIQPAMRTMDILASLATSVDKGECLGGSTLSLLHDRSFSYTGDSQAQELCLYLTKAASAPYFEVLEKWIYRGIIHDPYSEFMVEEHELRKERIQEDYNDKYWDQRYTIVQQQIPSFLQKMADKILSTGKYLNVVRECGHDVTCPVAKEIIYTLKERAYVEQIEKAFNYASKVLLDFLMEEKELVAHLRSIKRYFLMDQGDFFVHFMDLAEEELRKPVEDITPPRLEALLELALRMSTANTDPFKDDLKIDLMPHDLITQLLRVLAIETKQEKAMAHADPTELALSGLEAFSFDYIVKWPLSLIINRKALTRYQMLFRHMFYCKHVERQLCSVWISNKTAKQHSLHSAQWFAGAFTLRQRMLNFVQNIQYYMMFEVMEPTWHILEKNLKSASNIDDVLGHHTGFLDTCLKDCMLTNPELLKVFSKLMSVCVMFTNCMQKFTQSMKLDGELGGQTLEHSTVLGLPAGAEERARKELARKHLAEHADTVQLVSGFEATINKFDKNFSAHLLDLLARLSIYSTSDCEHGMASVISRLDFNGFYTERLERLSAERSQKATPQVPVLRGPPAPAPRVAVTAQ

This assay deals with T1, SIRT4-eGFP (human) (UniProt Q9Y6E7).
T1 sequence: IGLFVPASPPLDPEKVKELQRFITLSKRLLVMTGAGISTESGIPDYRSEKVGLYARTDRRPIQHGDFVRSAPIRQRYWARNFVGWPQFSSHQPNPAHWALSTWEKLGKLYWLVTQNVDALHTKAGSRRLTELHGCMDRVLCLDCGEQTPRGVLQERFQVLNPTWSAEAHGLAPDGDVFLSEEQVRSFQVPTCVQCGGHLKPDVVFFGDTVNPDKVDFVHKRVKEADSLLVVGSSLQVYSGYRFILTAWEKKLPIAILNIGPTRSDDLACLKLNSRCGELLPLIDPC
In words: affinity purification with mass spectrometry; anti-eGFP nanobody co-immunoprecipitation from total cell lysates of HEK293 cells stably expressing SIRT4-eGFP or eGFP (n = 4 each), arrested in G2 by Ro3306 and released into mitosis for 45 min; mass spectrometry.
Turning to “IDE (from UniProt P14735 1-1019) (enzyme)”, the binding result is “binds”.

Turning to “Tubulin Gamma Complex Associated Protein 3 (from UniProt Q96CW5 1-907)”, the binding entry is “binds”.

As for ATP5F1A (from UniProt P25705 44-553), the binding entry is on record as “binds”.

Turning to “histone deacetylase 6 (from UniProt Q9UBN7 1-1215) (enzyme)”, the binding result was “binds”.

Regarding γ-tubulin (from UniProt P23258), the binding result was “binds”.

For the substance “β-tubulin (human (endogenous in HEK293))”, the binding result is “binds”.

Regarding TUBGCP2 (from UniProt Q9BSJ2 1-902), the binding result is given as “binds”.

For “α-tubulin (human (endogenous in HEK293))”, the binding entry was “binds”.

The values are drawn from article PMC7564595.
